Assay results published in PMC10703867.
No constants are given. Whether binding was seen depends on the method and setting. In cells and extracts the contact can be indirect. Some results given as binding are weak or reduced against the parent protein; the word gives no strength. Tags and fused reporters may be left off the sequences shown.

Sequences of proteins named here, by UniProt entry; tags and fusion partners are left off. A change or cut given only in a name is not applied to a line headed by its entry. A line that says so, or that is headed by a name, gives the form on record, which may keep a tag or linker.
Myc-tagged RAPH1-i3 (RAPH1 isoform 3, encoded by RAPH1-v3) (Q70E73-9, form named): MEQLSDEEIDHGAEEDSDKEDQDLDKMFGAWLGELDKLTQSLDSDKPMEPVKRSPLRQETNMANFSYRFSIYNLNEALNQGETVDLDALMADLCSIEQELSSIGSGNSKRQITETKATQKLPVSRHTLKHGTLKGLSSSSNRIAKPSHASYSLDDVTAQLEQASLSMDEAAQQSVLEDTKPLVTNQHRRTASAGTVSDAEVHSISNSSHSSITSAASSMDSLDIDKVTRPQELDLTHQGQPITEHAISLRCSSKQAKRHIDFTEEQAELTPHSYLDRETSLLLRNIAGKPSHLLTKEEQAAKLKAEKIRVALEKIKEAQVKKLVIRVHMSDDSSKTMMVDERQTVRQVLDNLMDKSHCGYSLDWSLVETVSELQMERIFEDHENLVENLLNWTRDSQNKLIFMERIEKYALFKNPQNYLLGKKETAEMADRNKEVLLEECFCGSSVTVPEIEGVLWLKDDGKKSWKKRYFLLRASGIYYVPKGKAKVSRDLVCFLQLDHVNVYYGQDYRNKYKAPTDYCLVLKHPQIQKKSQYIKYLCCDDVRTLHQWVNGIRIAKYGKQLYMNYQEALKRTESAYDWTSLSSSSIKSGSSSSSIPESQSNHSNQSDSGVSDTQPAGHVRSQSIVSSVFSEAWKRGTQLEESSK

Target: T1, FOXQ1 in TNBC cells transfected with Myc-tagged RAPH1-i3 (human) (UniProt Q9C009)
T1 sequence: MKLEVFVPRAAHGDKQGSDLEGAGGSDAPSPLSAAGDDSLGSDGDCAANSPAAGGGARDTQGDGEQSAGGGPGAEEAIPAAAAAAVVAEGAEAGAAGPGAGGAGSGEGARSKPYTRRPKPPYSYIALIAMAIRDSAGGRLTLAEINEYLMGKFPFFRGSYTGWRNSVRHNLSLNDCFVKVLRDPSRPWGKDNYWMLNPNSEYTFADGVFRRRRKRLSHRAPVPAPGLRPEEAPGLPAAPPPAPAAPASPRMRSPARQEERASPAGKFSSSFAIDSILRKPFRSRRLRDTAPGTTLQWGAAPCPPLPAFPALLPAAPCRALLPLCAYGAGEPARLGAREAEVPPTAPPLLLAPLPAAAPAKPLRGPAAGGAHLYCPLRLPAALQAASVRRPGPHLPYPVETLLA
Assay: co-IP; TNBC cells transfected with Myc-tagged RAPH1-i3; immunoprecipitation with an anti-FOXQ1 antibody

binding: binds
Substance: Myc-tagged RAPH1-i3 (RAPH1 isoform 3, encoded by RAPH1-v3) (from UniProt Q70E73-9 1-644)
